Measurements reported in PubChem BioAssay AID1259415 (National Center for Advancing Translational Sciences (NCATS), 2018).
Screen size: about 410,000 compounds; about 18,000 (4.4%) were called active. The inconclusive results got no clear call from the source; some entries with a clear call stand among them for comparison. No stated cut-off is given here; in the data, active means activity change below about -60%; inconclusive means no clear call, values can overlap the other calls; inactive means above about -39%.

Assay: qHTS Assay for inhibitors of the human cytomegalovirus (HCMV)
Details: HFF cells, HCMV-luciferase reporter, 72 h; at 57.5 µM; stronger effect = lower value
In short: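 Screen run at 2 compound doses on HFFs infected with reporter HCMV, MOI 1 PFU/cell. Luciferase activity from cell lysates at 72 h post infection gave inhibition relative to buffer-only and Salinomycin wells.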
On the % scale 0 is the no-effect control and ±100 the full control effect.

Structure (SMILES) | activity change, negative = inhibition
N#Cc1ccc(OCC(=O)N2CCN(S(=O)(=O)c3ccc(Cl)s3)CC2)cc1 | active: -60.7%
O=C(c1cc(COc2ccc3ncccc3c2)on1)N1CCC[C@H]1CO | inconclusive: -43.3%
CCc1nc2ccc(C(=O)NCCN3CCNC3=O)cn2c1N(C)Cc1ccc(OC)cc1 | inconclusive: -47.4%
Cc1nc2ccccn2c1-c1csc(Nc2ccc(C(=O)O)cc2)n1 | inconclusive: -56.5%
CCn1nnc2cc(C(=O)Nc3cccc(Cl)c3)ccc21 | inactive: 40.8%
O=C(Nc1ccc(Cl)cc1)C1CC=CCC1C(=O)OCC(F)(F)C(F)F (stereo unspecified) | inconclusive: -40%
NC(=O)c1cccc(-c2cc(Nc3ccc(OC(F)(F)F)cc3)ncn2)c1 | inconclusive: -56.5%
CN(C(=O)CSc1nc2ccc([N+](=O)[O-])cc2s1)C1CCS(=O)(=O)C1 (stereo unspecified) | inconclusive: 0%
CC(C)(C)Nc1nc(OCC#N)nc(N2CCCCC2)n1 | inconclusive: -54%
CN(C(=O)Nc1ccc(Cl)c(Cl)c1)c1ccccc1C(=O)O | inconclusive: -45.5%
CCc1c(C)sc2c1CCN(C(=O)Nc1cc(OC)c(OC)c(OC)c1)C2c1ccccc1 (stereo unspecified) | inactive: -5.68%
CC(C)Cn1c(SCC#N)nc2ccccc2c1=O | active: -101%
COc1cc(CN(C(=O)c2ccco2)c2ccc(C)cc2)ccc1O | inconclusive: -47.4%
COc1cc2c(cc1OC)C(C)N(C(=O)Nc1ccc(F)cc1)CC2 (stereo unspecified) | active: -102%
C[C@H](CO)N1C[C@H](C)[C@@H](CN(C)S(C)(=O)=O)Oc2ccc(N(C)C)cc2C1=O | inactive: -18.5%
Cc1ccc(NC(=S)Nc2cccc3cnccc23)c(C)c1 | inactive: 65.5%
O=C(NCC1(c2ccccc2)CCCC1)c1ccccc1 | inconclusive: -43.6%
COc1ccc(/C=N/NC(=O)CCn2nnc3ccccc32)cc1 | inconclusive: -40.1%
O=C(Nc1c(-c2ccccc2)[nH][nH]c1=O)c1ccc2ccccc2c1 | inconclusive: -56.7%

Structure (SMILES) | activity change, negative = inhibition
C=CC[n+]1c(-c2ccc(C)cc2)csc1Nc1c(C)n(C)n(-c2ccccc2)c1=O | inconclusive: -41.1%
CN1CCC[C@@H]1CCNC(=O)c1c(-c2ccc3c(c2)OCO3)noc1-c1ccsc1 | active: -75.3%
c1ccc(Nc2ccc3ccccc3c2)cc1 | inconclusive: -46.2%
O=S(=O)(c1ccccc1)[C@@]1(c2ccccc2)C[C@@H]2ON=C(c3cccc(-c4ccccc4)c3)[C@@H]2C1 | inactive: 7.95%
Cc1nn(S(=O)(=O)c2ccc(Cl)cc2)c(C)c1Sc1ccc([N+](=O)[O-])cc1 | active: -77.5%
CCn1nc(C(=O)OC(C(=O)c2c[nH]c3ccccc23)c2ccccc2)c2ccccc2c1=O (stereo unspecified) | inconclusive: -54.1%
C=CCN1C(=O)NC(=O)/C(=C/C=C/c2ccccc2)C1=O | active: -112%
CCN1C(c2ccccc2)=C(c2ccccc2)S/C1=C\C=C1/SC(=S)N(C)C1=O | inconclusive: -48.4%
O=C(c1ccco1)N1N=C(c2ccc(Cl)cc2)CC1c1ccco1 (stereo unspecified) | inconclusive: -41.5%
O=C(c1noc2c1CCCCC2)N1CCN(c2ccc(Cl)cc2)CC1 | inconclusive: -52.9%
Cc1ccc2c(c1)C(=O)C(=O)N2CC1COc2ccccc2O1 (stereo unspecified) | active: -67.5%
COc1cc(C(=O)NCCOc2ccccc2C)c(Br)c(OC)c1OC | inconclusive: -44.6%
CN1CCN(c2ncnc3c2ncn3[C@H]2CN(Cc3ccc(Cl)cc3)C[C@@H](CO)O2)CC1 | inconclusive: -46.3%
CN(Cc1ccccc1)C(=O)CN1C(=O)CSc2ccc(S(=O)(=O)N3CCOCC3)cc21 | inconclusive: -48.3%
COc1ccc(NC(=O)CCS(=O)(=O)c2nc(-c3cccs3)cc(C(F)(F)F)n2)cc1OC | active: -101%
O=C(CN1CCCN(Cc2ccccc2Cl)S1(=O)=O)Nc1ccc2c(c1)OCCO2 | inactive: -7.66%
CCOC(=O)c1cc(-c2ccc(F)cc2)n(CC(=O)NC2CCCCC2)c1C | inconclusive: 0%
CCc1nn(CC(=O)NCCCN(Cc2ccccc2)C(C)C)c(=O)c2cc3sccc3n12 | active: -63.5%
O=C(COc1c(CO)cc(Br)cc1CO)NC1CCCc2ccccc21 (stereo unspecified) | inconclusive: -49.4%

Some of the entries so far, as labelled records:
COc1cc(C(=O)NCCOc2ccccc2C)c(Br)c(OC)c1OC
  activity change, negative = inhibition: inconclusive: -44.6%
CN1CCN(c2ncnc3c2ncn3[C@H]2CN(Cc3ccc(Cl)cc3)C[C@@H](CO)O2)CC1
  activity change, negative = inhibition: inconclusive: -46.3%
CN(Cc1ccccc1)C(=O)CN1C(=O)CSc2ccc(S(=O)(=O)N3CCOCC3)cc21
  activity change, negative = inhibition: inconclusive: -48.3%
COc1ccc(NC(=O)CCS(=O)(=O)c2nc(-c3cccs3)cc(C(F)(F)F)n2)cc1OC
  activity change, negative = inhibition: active: -101%

The list goes on:

Structure (SMILES) | activity change, negative = inhibition
CCOc1ccc(NC(=O)OCCN2CCN(CCc3ccccc3)C(C)C2)cc1 (stereo unspecified) | inconclusive: -42.1%
O=C(O)c1ccc(/C=N\Nc2ccccn2)cc1 | inactive: 79.5%
O=[N+]([O-])c1ccc(O)c(CNCc2ccccc2)c1 | inactive: 7.55%
COc1ccc(N(CC(=O)NCc2cccs2)S(=O)(=O)c2ccc(F)cc2)cc1 | inconclusive: -41.6%
Cc1ccc(S(=O)(=O)NCC(=O)OC(C(=O)c2ccccc2)c2ccccc2)cc1 (stereo unspecified) | inconclusive: -40.7%
CCN(CC)CCNC(=O)C1CCN(S(=O)(=O)c2c(C)noc2/C=C/c2ccccc2F)CC1 | inconclusive: -57.2%
Cn1c2ccccc2c(=O)c2ccc(C#Cc3ccc(N)cc3)cc21 | inconclusive: -58.9%
COC1=C(Br)C(=O)c2ncccc2C1=O | active: -69%
CCOC(=S)N/C(=N\S(C)(=O)=O)c1ccccc1 | inconclusive: -47.2%
COc1ccccc1NC(=O)c1ccc(NC(=O)C2CC2)cc1 | inconclusive: -40%
CNc1nc(Oc2cccc(F)c2)c2sccc2n1 | inactive: -29.4%
CC(=O)Nc1ccnn1C1CCN(C(=O)c2cccc(C)c2C)CC1 | inactive: -9.13%
CN1OC[C@@H]2CN(C(=S)NCCc3ccccc3)[C@H](c3ccc(-n4ccnc4)cc3)C[C@@H]21 | inactive: 4.61%
CCOc1ccccc1CNC(=O)CN1C(=O)CCCc2ccccc21 | inactive: 0%
O=C(NCc1ccccc1CN1CCCC1)c1ccc(S(=O)(=O)Nc2ccccc2F)cc1 | active: -75.4%
CNC(=O)COC(=O)c1cc(SC)ccc1Cl | inconclusive: -50.4%
CCOc1ccc(NC(=O)NC(C)c2c(-n3cccc3)sc(C)c2C)cc1 (stereo unspecified) | inconclusive: -42.6%
COc1ccc2c(c1)CC/C2=N\OC(=O)c1ccccc1C | inconclusive: -45%
